Laboratory results reported in article PMC7814021.
These are yes or no findings as the source states them, for the method shown. In cells and extracts the contact can be indirect. Some binding calls cover weakened binding; strength is not graded here.

Amino acid sequences for entries named in this document (tags omitted).
UniProt P26367: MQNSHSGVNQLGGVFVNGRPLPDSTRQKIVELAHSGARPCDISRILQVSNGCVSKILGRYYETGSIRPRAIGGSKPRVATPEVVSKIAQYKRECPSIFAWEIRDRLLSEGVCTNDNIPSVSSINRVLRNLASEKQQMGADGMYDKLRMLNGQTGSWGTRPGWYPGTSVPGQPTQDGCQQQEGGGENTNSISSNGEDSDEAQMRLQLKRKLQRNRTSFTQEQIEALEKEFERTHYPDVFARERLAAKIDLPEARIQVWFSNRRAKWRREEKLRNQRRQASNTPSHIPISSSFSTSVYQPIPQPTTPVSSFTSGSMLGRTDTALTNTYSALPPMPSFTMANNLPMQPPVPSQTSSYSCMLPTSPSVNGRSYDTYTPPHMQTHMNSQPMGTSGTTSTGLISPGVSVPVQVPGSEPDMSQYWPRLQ
UniProt Q01196: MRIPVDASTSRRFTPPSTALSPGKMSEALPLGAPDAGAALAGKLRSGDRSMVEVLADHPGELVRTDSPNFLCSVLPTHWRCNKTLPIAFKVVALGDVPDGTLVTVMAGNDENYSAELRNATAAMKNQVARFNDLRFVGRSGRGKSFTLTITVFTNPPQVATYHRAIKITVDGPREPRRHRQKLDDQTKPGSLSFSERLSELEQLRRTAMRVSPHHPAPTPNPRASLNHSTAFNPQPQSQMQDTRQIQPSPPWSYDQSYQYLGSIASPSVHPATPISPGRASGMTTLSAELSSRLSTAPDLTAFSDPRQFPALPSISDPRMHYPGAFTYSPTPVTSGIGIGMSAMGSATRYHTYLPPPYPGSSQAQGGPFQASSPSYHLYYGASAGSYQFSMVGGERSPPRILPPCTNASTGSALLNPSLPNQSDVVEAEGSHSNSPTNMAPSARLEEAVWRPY
UniProt P84022: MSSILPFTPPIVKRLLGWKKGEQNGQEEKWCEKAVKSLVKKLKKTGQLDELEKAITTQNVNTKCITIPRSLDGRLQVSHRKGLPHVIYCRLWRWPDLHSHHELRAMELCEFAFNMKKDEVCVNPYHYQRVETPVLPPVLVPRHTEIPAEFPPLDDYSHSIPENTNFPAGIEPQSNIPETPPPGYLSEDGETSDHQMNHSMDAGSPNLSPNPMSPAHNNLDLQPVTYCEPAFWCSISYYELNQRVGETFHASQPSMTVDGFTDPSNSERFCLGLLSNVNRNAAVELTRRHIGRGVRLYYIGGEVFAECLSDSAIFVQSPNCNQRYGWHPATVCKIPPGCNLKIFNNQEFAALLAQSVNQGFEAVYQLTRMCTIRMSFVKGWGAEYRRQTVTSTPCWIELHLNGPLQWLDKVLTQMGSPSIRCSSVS

Legend:
[1] = molecular target: PAX6 (human (endogenous in primary LSCs)) (UniProt P26367); assay: co-IP; nuclear extract of primary LSCs diluted to 150 mM salt; endogenous proteins immunoprecipitated with anti-PAX6, anti-RUNX1 or anti-pSMAD3 overnight at 4 °C, captured on Protein A/G Dynabeads, western blot
[2] = molecular target: RUNX1 (human (endogenous in primary LSCs)) (UniProt Q01196); assay: as above

binding [1]: binds | binding [2]: binds
Substance: phosphorylated SMAD3 (from UniProt P84022 1-425)
